Results as given in EP2703005A1, “Inhibitors of alpha6 Integrin/E-Cadherin Complex” (Università Degli Studi Di Torino, priority 2012, dated 2014).
No constants are given. Whether binding was seen depends on the method and setting. For part of these data: In cells and extracts the contact can be indirect. Some entries that bind do so weakly or less than the wild type. One block for each binder: values may come before it.

The chains behind the UniProt entries cited, without tags or fusion partners. Where a name states a change or a piece, a line headed by the entry shows the natural chain unless it says otherwise.
UniProt P12830: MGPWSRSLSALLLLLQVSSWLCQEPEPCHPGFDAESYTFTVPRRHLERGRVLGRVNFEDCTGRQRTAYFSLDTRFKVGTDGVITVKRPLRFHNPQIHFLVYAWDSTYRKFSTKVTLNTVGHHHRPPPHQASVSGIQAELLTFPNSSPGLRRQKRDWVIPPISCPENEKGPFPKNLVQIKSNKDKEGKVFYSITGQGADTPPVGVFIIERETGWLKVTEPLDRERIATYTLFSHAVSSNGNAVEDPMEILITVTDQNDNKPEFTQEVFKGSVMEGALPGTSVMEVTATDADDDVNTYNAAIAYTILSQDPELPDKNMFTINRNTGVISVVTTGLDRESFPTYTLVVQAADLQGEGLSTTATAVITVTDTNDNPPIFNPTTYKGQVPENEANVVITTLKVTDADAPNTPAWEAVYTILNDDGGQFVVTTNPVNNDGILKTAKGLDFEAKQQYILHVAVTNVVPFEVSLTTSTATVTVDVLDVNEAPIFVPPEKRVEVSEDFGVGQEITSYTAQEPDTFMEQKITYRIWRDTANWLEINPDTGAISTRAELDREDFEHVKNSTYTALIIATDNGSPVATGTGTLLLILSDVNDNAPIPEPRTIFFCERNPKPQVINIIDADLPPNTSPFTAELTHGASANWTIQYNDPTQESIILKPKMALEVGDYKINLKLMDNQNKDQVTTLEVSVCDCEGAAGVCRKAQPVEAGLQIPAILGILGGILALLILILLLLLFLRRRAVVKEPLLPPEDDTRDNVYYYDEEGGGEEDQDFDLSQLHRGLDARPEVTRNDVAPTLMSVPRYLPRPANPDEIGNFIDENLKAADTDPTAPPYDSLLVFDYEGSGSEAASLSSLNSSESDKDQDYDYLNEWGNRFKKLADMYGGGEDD

Legend:
E-cadherin (human) [1] = molecular target: E-cadherin (human) (UniProt P12830); experiment: summary of confocal imaging and co-immunoprecipitation
E-cadherin (human) [2] = molecular target: E-cadherin (human) (UniProt P12830); experiment: co-immunoprecipitation from NCI-H630 lysate, immunoblot
E-cadherin (human) [3] = molecular target: E-cadherin (human) (UniProt P12830); experiment: co-immunoprecipitation from 5 pooled human liver metastases, immunoblot
E-cadherin (human) [4] = molecular target: E-cadherin (human) (UniProt P12830); experiment: co-immunoprecipitation from NCI-H630 lysate, both directions (Figure 3A)
E-cadherin (human) [5] = molecular target: E-cadherin (human) (UniProt P12830); experiment: immunoprecipitation with anti-E-cadherin, blot with anti-α6 integrin, pooled liver metastases (Figure 3B)
[6] = molecular target: α6 integrin/E-cadherin receptor complex on NCI-H630 cells (human) (UniProt P23229); experiment: adhesion of silenced NCI-H630 cells to coated recombinant angiopoietin-like 6 (Figure 10C)

binding (E-cadherin (human) [1]): binds
binding (E-cadherin (human) [2]): binds
binding (E-cadherin (human) [3]): binds
binding (E-cadherin (human) [4]): binds
binding (E-cadherin (human) [5]): binds
B1: α6 integrin (receptor)
chain: FNLDTREDNVIRKYGDPGSLFGFSLAMHWQLQPEDKRLLLVGAPRAEALPLQRANRTGGLYSCDITARGPCTRIEFDNDADPTSESKEDQWMGVTVQSQGPGGKVVTCAHRYEKRQHVNTKQESRDIFGRCYVLSQNLRIEDDMDGGDWSFCDGRLRGHEKFGSCQQGVAATFTKDFHYIVFGAPGTYNWKGIVRVEQKNNTFFDMNIFEDGPYEVGGETEHDESLVPVPANSYLGFSLDSGKGIVSKDEITFVSGAPRANHSGAVVLLKRDMKSAHLLPEHIFDGEGLASSFGYDVAVVDLNKDGWQDIVIGAPQYFDRDGEVGGAVYVYMNQQGRWNNVKPIRLNGTKDSMFGIAVKNIGDINQDGYPDIAVGAPYDDLGKVFIYHGSANGINTKPTQVLKGISPYFGYSIAGNMDLDRNSYPDVAVGSLSDSVTIFRSRPVINIQKTITVTPNRIDLRQKTACGAPSGICLQVKSCFEYTANPAGYNPSISIVGTLEAEKERRKSGLSSRVQFRNQGSEPKYTQELTLKRQKQKVCMEETLWLQDNIRDKLRPIPITASVEIQEPSSRRRVNSLPEVLPILNSDEPKTAHIDVHFLKEGCGDDNVCNSNLKLEYKFCTREGNQDKFSYLPIQKGVPELVLKDQKDIALEITVTNSPSNPRNPTKDGDDAHEAKLIATFPDTLTYSAYRELRAFPEKQLSCVANQNGSQADCELGNPFKRNSNVTFYLVLSTTEVTFDTPDLDINLKLETTSNQDNLAPITAKAKVVIELLLSVSGVAKPSQVYFGGTVVGEQAMKSEDEVGSLIEYEFRVINLGKPLTNLGTATLNIQWPKEISNGKWLLYLVKVESKGLEKVTCEPQKEINSLNLTESHNSRKKREITEKQIDDNRKFSLFAERKYQTLNCSVNVNCVNIRCPLRGLDSKASLILRSRLWNSTFLEEYSKLNYLDILMRAFIDVTAAAENIRLPNAGTQVRVTVFPSKTVAQYSGVPWWIILVAILAGILMLALLVFILWKCGFFKRNKKDHYDATYHKAEIHAQPSDKERLTSDA

binding [6]: binds
B2: recombinant angiopoietin-like 6 (ligand, UniProt Q8NI99 21-470, looked up)
chain: RAGAPRCTYTFVLPPQKFTGAVCWSGPASTRATPEAANASELAALRMRVGRHEELLRELQRLAAADGAVAGEVRALRKESRGLSARLGQLRAQLQHEAGPGAGPGADLGAEPAAALALLGERVLNASAEAQRAAARFHQLDVKFRELAQLVTQQSSLIARLERLCPGGAGGQQQVLPPPPLVPVVPVRLVGSTSDTSRMLDPAPEPQRDQTQRQQEPMASPMPAGHPAVPTKPVGPWQDCAEARQAGHEQSGVYELRVGRHVVSVWCEQQLEGGGWTVIQRRQDGSVNFFTTWQHYKAGFGRPDGEYWLGLEPVYQLTSRGDHELLVLLEDWGGRGARAHYDGFSLEPESDHYRLRLGQYHGDAGDSLSWHNDKPFSTVDRDRDSYSGNCALYQRGGWWYHACAHSNLNGVWHHGGHYRSRYQDGVYWAEFRGGAYSLRKAAMLIRPLKL
